The list does not hold the whole screen: it gathers tests that were run many times, whatever their T/C, doses with no T/C, and many T/C values between a quarter and a half above the control. Other doses and runs of a compound stand elsewhere. T/C: endpoint of the treated group in % of that of the vehicle group. Some entries give survivors of the animals treated and no T/C: the source holds a T/C of zero for them, seemingly a mark for toxic or unscored doses. Some survivor counts are full or nearly so, which does not show that the dose was tolerated: survival well below the control is almost never listed, so the zero probably covers shortened survival too. Survivors were counted at the toxicity check, usually on the fifth day, unless a day is given; later deaths do not show. Schedule codes are those of the source, read here as Q, the interval in days (D) or hours (H), X, the number of doses. Counts like (3×) say how often a value occurs here. Some doses were run more than once; the values are given in rising order. For survival time, the PubChem record calls one and a half times the control and up active, and a quarter to a half above the control has no call in these data; cut-offs in other NCI protocols can differ. Some T/C values are followed by the survivors on the day toxicity was checked, most often the fifth; without a count, all were alive then.
System: CD2F1 mice, L1210 leukemia ip, survival T/C
Assay: NCI In Vivo Anticancer Drug Screen. Data for tumor model L1210 Leukemia (intraperitoneal) in CD2F1 (CDF1) mice
Conditions: higher T/C = longer survival
Method in brief: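 Each value reflects a quotient of treated over vehicle control outcomes in mice with a transplanted tumor.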

[1] = T/C endpoint: mean survival time, dose: 400.0 mg/kg/injection, schedule: Q04DX003 (ip), vehicle: saline with Tween-80
[2] = T/C endpoint: mean survival time, dose: 100.0 mg/kg/injection, schedule: Q01DX001 (ip), vehicle: saline with Tween-80
[3] = T/C endpoint: mean survival time, dose: 35.0 mg/kg/injection, schedule: Q01DX009 (ip), vehicle: saline
[4] = T/C endpoint: mean survival time, dose: 55.0 mg/kg/injection, schedule: Q01DX009 (ip), vehicle: saline
[5] = T/C endpoint: mean survival time, dose: 80.0 mg/kg/injection, schedule: Q01DX009 (ip), vehicle: saline

With `O=c1ccocc1O` the survivor count (T/C endpoint: mean survival time, dose: 100.0 mg/kg/injection, schedule: Q04DX002 (ip), vehicle: saline) was 3 of 3.
With `COc1cc(-c2ccc(-[n+]3nc(Cc4ccc5c(c4)OCO5)nn3-c3ccccc3)c(OC)c2)ccc1-[n+]1nc(Cc2ccc3c(c2)OCO3)nn1-c1ccccc1` the survivor count [1] was 0 of 6.
With `Nc1nc(=S)c2n[nH]nc2[nH]1` the survivor count [2] was 2 of 6.
With `C1C[S][Sn]2([S]CCO1)[S]CCOCC[S]2` the survivor count [2] was 0 of 3, the survivor count (T/C endpoint: mean survival time, dose: 200.0 mg/kg/injection, schedule: Q01DX001 (ip), vehicle: saline with Tween-80) was 0 of 3 and the survivor count (T/C endpoint: mean survival time, dose: 400.0 mg/kg/injection, schedule: Q01DX001 (ip), vehicle: saline with Tween-80) was 0 of 3.
`CN(C)P1(=O)OCC(C(C)(C)C)CO1` (stereo unspecified) was tested, and the survivor count (T/C endpoint: mean survival time, dose: 100.0 mg/kg/injection, schedule: Q04DX002 (ip), vehicle: saline with Tween-80) was 3 of 3, the survivor count (T/C endpoint: mean survival time, dose: 200.0 mg/kg/injection, schedule: Q04DX002 (ip), vehicle: saline with Tween-80) was 0 of 3 and 2 of 3 and the survivor count (T/C endpoint: mean survival time, dose: 400.0 mg/kg/injection, schedule: Q04DX002 (ip), vehicle: saline with Tween-80) was 0 of 3 (2×).
`c1ccc2c(c1)nnn2-c1ccncc1` was tested, and the survivor count [1] was 5 of 6.
With `N#CN=C([S-])[S-].N#CN=C([S-])[S-].[Cu]` the survivor count [3] was 3 of 6, the survivor count (T/C endpoint: mean survival time, dose: 50.0 mg/kg/injection, schedule: Q04DX003 (ip), vehicle: acetone) was 1 of 6 and the survivor count [4] was 0 of 6. The survivor count [5] was 0 of 6.
In the case of `O=C1C=CC(=O)N1CN1CCOCC1`, the survivor count (T/C endpoint: mean survival time, dose: 17.5 mg/kg/injection, schedule: Q01DX009 (ip), vehicle: saline) is reported as 6 of 6, the survivor count (T/C endpoint: mean survival time, dose: 25.0 mg/kg/injection, schedule: Q04DX003 (ip), vehicle: saline) is reported as 3 of 6 and the survivor count [3] is reported as 3 of 6. The survivor count (T/C endpoint: mean survival time, dose: 50.0 mg/kg/injection, schedule: Q04DX003 (ip), vehicle: saline) was 0 of 6, the survivor count [4] was 0 of 6 and the survivor count [5] was 0 of 6.
With `CN=NNc1ccc(C(=O)NC(C)C)cc1` the T/C (T/C endpoint: mean survival time, dose: 100.0 mg/kg/injection, schedule: Q01DX009 (ip), vehicle: DMSO) was 149 % of control, the T/C (T/C endpoint: mean survival time, dose: 100.0 mg/kg/injection, schedule: Q01DX009 (ip), vehicle: other) was 130 % of control and the T/C (T/C endpoint: mean survival time, dose: 200.0 mg/kg/injection, schedule: Q01DX009 (ip), vehicle: other) was 133 % of control [5 of 6 alive] (2×). The survivor count (T/C endpoint: mean survival time, dose: 400.0 mg/kg/injection, schedule: Q01DX009 (ip), vehicle: DMSO) was 2 of 6 and the survivor count (T/C endpoint: mean survival time, dose: 400.0 mg/kg/injection, schedule: Q01DX009 (ip), vehicle: other) was 1 of 6 and 2 of 6.
With `CN1CCC(CCOCc2ccccc2)(CN2c3ccccc3Sc3ccccc32)C1` (stereo unspecified) the survivor count (T/C endpoint: mean survival time, dose: 100.0 mg/kg/injection, schedule: Q04DX003 (ip), vehicle: saline with Tween-80) was 3 of 6, the survivor count (T/C endpoint: mean survival time, dose: 200.0 mg/kg/injection, schedule: Q04DX003 (ip), vehicle: saline with Tween-80) was 1 of 6 and the survivor count [1] was 0 of 6.
In the case of `CC[NH-].[Cl][Pt+2][Cl].[NH2-]`, the T/C (T/C endpoint: mean survival time, dose: 3.13 mg/kg/injection, schedule: Q04DX003 (ip), vehicle: water) is reported as 134 % of control, the T/C (T/C endpoint: mean survival time, dose: 6.25 mg/kg/injection, schedule: Q04DX003 (ip), vehicle: distilled water + Tween-80) is reported as 127 % of control and the survivor count (T/C endpoint: mean survival time, dose: 12.5 mg/kg/injection, schedule: Q04DX003 (ip), vehicle: distilled water + Tween-80) is reported as 6 of 6. The survivor count (T/C endpoint: mean survival time, dose: 12.5 mg/kg/injection, schedule: Q04DX003 (ip), vehicle: water) was 6 of 6, the survivor count (T/C endpoint: mean survival time, dose: 50.0 mg/kg/injection, schedule: Q04DX003 (ip), vehicle: distilled water + Tween-80) was 0 of 6 and the survivor count (T/C endpoint: mean survival time, dose: 100.0 mg/kg/injection, schedule: Q04DX003 (ip), vehicle: distilled water + Tween-80) was 0 of 6. The survivor count (T/C endpoint: mean survival time, dose: 200.0 mg/kg/injection, schedule: Q04DX003 (ip), vehicle: distilled water + Tween-80) was 0 of 6.
In the case of `CC/C(=C(\c1ccccc1)c1ccc(OCCN(C)C)cc1)c1ccccc1`, the survivor count (T/C endpoint: median survival time, dose: 100.0 mg/kg/injection, schedule: Q01DX009 (ip), vehicle: saline with Tween-80) is reported as 4 of 6, the survivor count (T/C endpoint: median survival time, dose: 200.0 mg/kg/injection, schedule: Q01DX009 (ip), vehicle: saline with Tween-80) is reported as 0 of 6 and the survivor count (T/C endpoint: median survival time, dose: 400.0 mg/kg/injection, schedule: Q01DX009 (ip), vehicle: saline with Tween-80) is reported as 0 of 6.
For `CN(Cc1ccc[n+](Cc2ccc(S(=O)(=O)F)cc2)c1)C(=O)COc1ccc(Cl)c(Cl)c1`, the survivor count [1] was 3 of 6.
For `Cc1c2ccccc2c(CSCCC(N)C(=O)O)c2ccc3ccccc3c12` (stereo unspecified), the survivor count [1] was 6 of 6.
For `O=C1NC(=O)C2(CCc3ccc(N(CCCl)CCCl)cc32)N1` (stereo unspecified), the T/C (T/C endpoint: mean survival time, dose: 12.5 mg/kg/injection, schedule: Q01DX009 (ip), vehicle: Klucel (hydroxypropylcellulose) (HPC)) was 126 % of control.
